These results are taken from PMC2702278.

By UniProt entry, the sequences of proteins in these tests, tags left out. Where a name states a change or a piece, a line headed by the entry shows the natural chain unless it says otherwise.
UniProt Q96B97: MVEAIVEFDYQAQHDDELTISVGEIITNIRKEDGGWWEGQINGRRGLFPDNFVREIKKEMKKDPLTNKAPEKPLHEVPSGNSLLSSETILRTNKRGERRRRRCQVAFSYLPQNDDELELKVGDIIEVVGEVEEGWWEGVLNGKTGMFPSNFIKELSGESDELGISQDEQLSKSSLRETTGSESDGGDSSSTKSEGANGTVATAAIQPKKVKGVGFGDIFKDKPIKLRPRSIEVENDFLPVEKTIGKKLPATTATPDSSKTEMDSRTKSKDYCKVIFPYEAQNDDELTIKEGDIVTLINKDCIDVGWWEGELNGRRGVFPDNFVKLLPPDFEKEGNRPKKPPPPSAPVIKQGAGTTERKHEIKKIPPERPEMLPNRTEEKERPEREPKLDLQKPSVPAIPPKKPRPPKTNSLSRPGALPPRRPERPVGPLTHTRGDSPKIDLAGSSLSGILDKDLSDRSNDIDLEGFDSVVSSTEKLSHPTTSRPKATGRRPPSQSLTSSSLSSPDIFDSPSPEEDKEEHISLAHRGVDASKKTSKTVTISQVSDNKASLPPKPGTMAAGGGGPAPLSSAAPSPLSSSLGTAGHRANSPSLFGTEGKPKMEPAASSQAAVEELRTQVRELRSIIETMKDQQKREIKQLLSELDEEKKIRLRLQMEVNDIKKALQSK
UniProt Q8NC56: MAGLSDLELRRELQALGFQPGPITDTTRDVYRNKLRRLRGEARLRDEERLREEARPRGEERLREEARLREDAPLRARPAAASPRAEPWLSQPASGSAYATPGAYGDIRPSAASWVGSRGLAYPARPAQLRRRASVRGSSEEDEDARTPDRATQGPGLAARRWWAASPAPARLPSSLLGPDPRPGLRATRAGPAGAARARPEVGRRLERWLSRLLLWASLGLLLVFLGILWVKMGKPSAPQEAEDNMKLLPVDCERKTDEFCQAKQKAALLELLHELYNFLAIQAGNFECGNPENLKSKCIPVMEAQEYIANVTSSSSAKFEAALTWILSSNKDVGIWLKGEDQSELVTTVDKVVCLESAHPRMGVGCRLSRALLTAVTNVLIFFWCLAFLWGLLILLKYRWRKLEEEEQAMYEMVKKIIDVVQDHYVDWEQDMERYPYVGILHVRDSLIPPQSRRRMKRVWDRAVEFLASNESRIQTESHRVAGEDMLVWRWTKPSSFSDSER
UniProt Q86W92: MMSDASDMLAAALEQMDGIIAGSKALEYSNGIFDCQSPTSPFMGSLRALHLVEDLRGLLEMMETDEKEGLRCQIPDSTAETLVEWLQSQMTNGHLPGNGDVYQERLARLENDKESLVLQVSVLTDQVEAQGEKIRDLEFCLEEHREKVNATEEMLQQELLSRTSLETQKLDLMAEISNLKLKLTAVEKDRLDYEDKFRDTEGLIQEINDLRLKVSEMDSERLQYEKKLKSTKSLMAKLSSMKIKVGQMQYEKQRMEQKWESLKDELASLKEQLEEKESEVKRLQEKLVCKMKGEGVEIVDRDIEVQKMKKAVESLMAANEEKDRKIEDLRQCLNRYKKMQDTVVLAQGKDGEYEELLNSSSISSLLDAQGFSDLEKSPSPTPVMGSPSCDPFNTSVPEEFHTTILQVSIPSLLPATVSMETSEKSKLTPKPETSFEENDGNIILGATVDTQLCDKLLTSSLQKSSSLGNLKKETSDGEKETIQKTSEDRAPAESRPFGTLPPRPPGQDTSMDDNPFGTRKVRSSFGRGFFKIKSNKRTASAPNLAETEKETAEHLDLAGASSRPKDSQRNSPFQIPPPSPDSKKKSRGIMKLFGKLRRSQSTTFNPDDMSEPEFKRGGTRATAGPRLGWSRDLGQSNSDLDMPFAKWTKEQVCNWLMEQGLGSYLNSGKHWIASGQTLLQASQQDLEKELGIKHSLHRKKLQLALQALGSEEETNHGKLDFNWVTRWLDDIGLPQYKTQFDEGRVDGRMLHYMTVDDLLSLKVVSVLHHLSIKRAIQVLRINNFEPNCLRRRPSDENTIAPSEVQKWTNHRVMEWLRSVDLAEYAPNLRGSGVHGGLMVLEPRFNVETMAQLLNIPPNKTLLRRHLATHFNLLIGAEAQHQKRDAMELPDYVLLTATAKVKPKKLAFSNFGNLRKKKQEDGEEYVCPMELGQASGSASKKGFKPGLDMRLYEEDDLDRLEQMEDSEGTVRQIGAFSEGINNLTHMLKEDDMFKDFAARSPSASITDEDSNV
UniProt Q14244: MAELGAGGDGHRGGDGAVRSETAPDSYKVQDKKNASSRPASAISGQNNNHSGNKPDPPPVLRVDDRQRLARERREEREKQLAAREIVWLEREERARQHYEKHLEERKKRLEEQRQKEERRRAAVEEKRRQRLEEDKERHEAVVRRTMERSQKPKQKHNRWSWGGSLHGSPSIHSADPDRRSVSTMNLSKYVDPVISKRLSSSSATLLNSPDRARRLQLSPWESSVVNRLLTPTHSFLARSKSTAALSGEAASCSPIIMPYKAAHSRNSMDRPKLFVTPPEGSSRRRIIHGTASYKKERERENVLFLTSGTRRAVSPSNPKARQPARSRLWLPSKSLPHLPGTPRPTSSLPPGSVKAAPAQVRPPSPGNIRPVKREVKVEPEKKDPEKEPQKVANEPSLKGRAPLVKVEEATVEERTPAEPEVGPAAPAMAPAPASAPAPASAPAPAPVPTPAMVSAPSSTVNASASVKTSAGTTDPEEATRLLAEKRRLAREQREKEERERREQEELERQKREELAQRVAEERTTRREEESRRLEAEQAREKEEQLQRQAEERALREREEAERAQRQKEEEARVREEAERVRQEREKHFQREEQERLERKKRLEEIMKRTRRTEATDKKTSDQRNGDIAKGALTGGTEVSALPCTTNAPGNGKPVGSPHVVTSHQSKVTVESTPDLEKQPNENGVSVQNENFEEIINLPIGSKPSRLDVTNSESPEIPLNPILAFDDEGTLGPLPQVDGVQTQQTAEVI

Assay in all cases: affinity purification with mass spectrometry; GST-fusion SH3 domain (about 10 μg on 40 μl Glutathione Sepharose 4B) incubated 4 h at 4°C with HeLa lysate pre-cleared on GST beads; 20 mM Tris pH 7.5, 150 mM NaCl, 5 mM EDTA, 5% glycerol, 0.5% Triton X-100 (washes 0.1%); SDS-PAGE, in-gel trypsin digestion, LC-MS/MS; hits also found with GST alone removed; only the target purified
Experiment [1] deals with GST-fusion SH3B domain of Ruk/CIN85 (UniProt Q96B97).
For experiment [2], the target named is GST-fusion SH3C domain of Ruk/CIN85 (UniProt Q96B97).
The target in experiment [3] is GST-fusion SH3A domain of Ruk/CIN85 (UniProt Q96B97).

These are yes or no findings as the source states them, for the method shown. In cells and extracts the contact can be indirect. A yes stands for co-enrichment or nearness to the bait. Other partners may have been found.

On to hLEM2 (from UniProt Q8NC56 1-503), for which, in experiment [1], the binding entry is reported as “binds”. With Liprin β1 (from UniProt Q86W92 1-1011), the binding entry in experiment [1] is “binds”. Turning to E-MAP-115 (from UniProt Q14244 1-749), the binding result in experiment [1] was “binds”.

B1: Synaptopodin (protein, UniProt Q8N3V7 1-929)
chain: MLGPHLPPPPLAPSEGRPTPCAFQIPDGSYRCLALEAEESSGEEGLQGEVGPTDLEEDEGVSRSGDDSACRVTQGTPQLPKALGIQPPSCSREEQGASQHDDRASQDWDVVKAGQMMTASPSPGPGPRVAQKPALGRSTSLTEKDLKEAKARSQQIAAQLTTPPSSNSRGVQLFNRRRQRVNEFTLESHGQRGQKPSQESLRVLPSSLPGHAPGLSLSSTSLPEPGPPRHPSPQSPDRGVPGHSMEGYSEEASLLRHLEKVASEEEEVPLVVYLKENAALLTANGLHLSQNREAQQSSPAPPPAEVHSPAADVNQNLASPSATLTTPTSNSSHNPPATDVNQNPPATVVPQSLPLSSIQQNSSEAQLPSNGTGPASKPSTLCADGQPQAPAEEVRCSTLLIDKVSTPATTTSTFSREATLIPSSRPPASDFMSSSLLIDIQPNTLVVSADQEMSGRAAATTPTKVYSEVHFTLAKPPSVVNRTARPFGIQAPGGTSQMERSPMLERRHFGEKAPAPQPPSLPDRSPRPQRHIMSRSPMVERRMMGQRSPASERRPLGNFTAPPTYTETLSTAPLASWVRSPPSYSVLYPSSDPKSSHLKGQAVPASKTGILEESMARRGSRKSMFTFVEKPKVTPNPDLLDLVQTADEKRRQRDQGEVGVEEEPFALGAEASNFQQEPAPRDRASPAAAEEVVPEWASCLKSPRIQAKPKPKPNQNLSEASGKGAELYARRQSRMEKYVIESSSHTPELARCPSPTMSLPSSWKYPTNAPGAFRVASRSPARTPPASLYHGYLPENGVLRPEPTKQPPYQLRPSLFVLSPIKEPAKVSPRAASPAKPSSLDLVPNLPKGALPPSPALPRPSRSSPGLYTSPGQDSLQPTAVSPPYGGDISPVSPSRAWSPRAKQAPRPSFSTRNAGIEAQVWKPSFCFK
Regarding B1, the binding result in experiment [2] and in experiment [3] was “binds” throughout.

B2: Septin 2 (protein, UniProt Q15019 1-361)
chain: MSKQQPTQFINPETPGYVGFANLPNQVHRKSVKKGFEFTLMVVGESGLGKSTLINSLFLTDLYPERVIPGAAEKIERTVQIEASTVEIEERGVKLRLTVVDTPGYGDAINCRDCFKTIISYIDEQFERYLHDESGLNRRHIIDNRVHCCFYFISPFGHGLKPLDVAFMKAIHNKVNIVPVIAKADTLTLKERERLKKRILDEIEEHNIKIYHLPDAESDEDEDFKEQTRLLKASIPFSVVGSNQLIEAKGKKVRGRLYPWGVVEVENPEHNDFLKLRTMLITHMQDLQEVTQDLHYENFRSERLKRGGRKVENEDMNKDQILLEKEAELRRMQEMIARMQAQMQMQMQGGDGDGGALGHHV
In the case of B2, the binding result in experiment [2] and in experiment [3] was “binds” in each case.

B3: WIRE (protein, UniProt Q8TF74 1-440)
chain: MPIPPPPPPPPGPPPPPTFHQANTEQPKLSRDEQRGRGALLQDICKGTKLKKVTNINDRSAPILEKPKGSSGGYGSGGAALQPKGGLFQGGVLKLRPVGAKDGSENLAGKPALQIPSSRAAAPRPPVSAASGRPQDDTDSSRASLPELPRMQRPSLPDLSRPNTTSSTGMKHSSSAPPPPPPGRRANAPPTPLPMHSSKAPAYNREKPLPPTPGQRLHPGREGPPAPPPVKPPPSPVNIRTGPSGQSLAPPPPPYRQPPGVPNGPSSPTNESAPELPQRHNSLHRKTPGPVRGLAPPPPTSASPSLLSNRPPPPARDPPSRGAAPPPPPPVIRNGARDAPPPPPPYRMHGSEPPSRGKPPPPPSRTPAGPPPPPPPPLRNGHRDSITTVRSFLDDFESKYSFHPVEDFPAPEEYKHFQRIYPSKTNRAARGAPPLPPILR
Regarding B3, the binding result in experiment [2] and in experiment [3] was “binds” each time.

B4: MCM5 (protein, UniProt P33992 1-734)
chain: MSGFDDPGIFYSDSFGGDAQADEGQARKSQLQRRFKEFLRQYRVGTDRTGFTFKYRDELKRHYNLGEYWIEVEMEDLASFDEDLADYLYKQPAEHLQLLEEAAKEVADEVTRPRPSGEEVLQDIQVMLKSDASPSSIRSLKSDMMSHLVKIPGIIIAASAVRAKATRISIQCRSCRNTLTNIAMRPGLEGYALPRKCNTDQAGRPKCPLDPYFIMPDKCKCVDFQTLKLQELPDAVPHGEMPRHMQLYCDRYLCDKVVPGNRVTIMGIYSIKKFGLTTSRGRDRVGVGIRSSYIRVLGIQVDTDGSGRSFAGAVSPQEEEEFRRLAALPNVYEVISKSIAPSIFGGTDMKKAIACLLFGGSRKRLPDGLTRRGDINLLMLGDPGTAKSQLLKFVEKCSPIGVYTSGKGSSAAGLTASVMRDPSSRNFIMEGGAMVLADGGVVCIDEFDKMREDDRVAIHEAMEQQTISIAKAGITTTLNSRCSVLAAANSVFGRWDETKGEDNIDFMPTILSRFDMIFIVKDEHNEERDVMLAKHVITLHVSALTQTQAVEGEIDLAKLKKFIAYCRVKCGPRLSAEAAEKLKNRYIIMRSGARQHERDSDRRSSIPITVRQLEAIVRIAEALSKMKLQPFATEADVEEALRLFQVSTLDAALSGTLSGVEGFTSQEDQEMLSRIEKQLKRRFAIGSQVSEHSIIKDFTKQKYPEHAIHKVLQLMLRRGEIQHRMQRKVLYRLK
In the case of B4, the binding result in experiment [1] is “binds”.

B5: KCTD10 (protein, UniProt Q9H3F6 1-313)
chain: MEEMSGESVVSSAVPAAATRTTSFKGTSPSSKYVKLNVGGALYYTTMQTLTKQDTMLKAMFSGRMEVLTDSEGWILIDRCGKHFGTILNYLRDGAVPLPESRREIEELLAEAKYYLVQGLVEECQAALQNKDTYEPFCKVPVITSSKEEQKLIATSNKPAVKLLYNRSNNKYSYTSNSDDNMLKNIELFDKLSLRFNGRVLFIKDVIGDEICCWSFYGQGRKIAEVCCTSIVYATEKKQTKVEFPEARIYEETLNILLYEAQDGRGPDNALLEATGGAAGRSHHLDEDEERERIERVRRIHIKRPDDRAHLHQ
Consider B5, for which the binding entry in experiment [1] was “binds”.

B6: Dynamin 1 (protein, UniProt Q05193 1-864)
chain: MGNRGMEDLIPLVNRLQDAFSAIGQNADLDLPQIAVVGGQSAGKSSVLENFVGRDFLPRGSGIVTRRPLVLQLVNATTEYAEFLHCKGKKFTDFEEVRLEIEAETDRVTGTNKGISPVPINLRVYSPHVLNLTLVDLPGMTKVPVGDQPPDIEFQIRDMLMQFVTKENCLILAVSPANSDLANSDALKVAKEVDPQGQRTIGVITKLDLMDEGTDARDVLENKLLPLRRGYIGVVNRSQKDIDGKKDITAALAAERKFFLSHPSYRHLADRMGTPYLQKVLNQQLTNHIRDTLPGLRNKLQSQLLSIEKEVEEYKNFRPDDPARKTKALLQMVQQFAVDFEKRIEGSGDQIDTYELSGGARINRIFHERFPFELVKMEFDEKELRREISYAIKNIHGIRTGLFTPDMAFETIVKKQVKKIREPCLKCVDMVISELISTVRQCTKKLQQYPRLREEMERIVTTHIREREGRTKEQVMLLIDIELAYMNTNHEDFIGFANAQQRSNQMNKKKTSGNQDEILVIRKGWLTINNIGIMKGGSKEYWFVLTAENLSWYKDDEEKEKKYMLSVDNLKLRDVEKGFMSSKHIFALFNTEQRNVYKDYRQLELACETQEEVDSWKASFLRAGVYPERVGDKEKASETEENGSDSFMHSMDPQLERQVETIRNLVDSYMAIVNKTVRDLMPKTIMHLMINNTKEFIFSELLANLYSCGDQNTLMEESAEQAQRRDEMLRMYHALKEALSIIGDINTTTVSTPMPPPVDDSWLQVQSVPAGRRSPTSSPTPQRRAPAVPPARPGSRGPAPGPPPAGSALGGAPPVPSRPGASPDPFGPPPQVPSRPNRAPPGVPSRSGQASPSRPESPRPPFDL
For B6, the binding entry in experiment [2] and in experiment [3] was “binds” throughout.
